## Results of single-concentration screens

By UniProt entry, the sequences of proteins in these tests, tags left out. Residues count along the entry.
UniProt P9WPC5, whole entry: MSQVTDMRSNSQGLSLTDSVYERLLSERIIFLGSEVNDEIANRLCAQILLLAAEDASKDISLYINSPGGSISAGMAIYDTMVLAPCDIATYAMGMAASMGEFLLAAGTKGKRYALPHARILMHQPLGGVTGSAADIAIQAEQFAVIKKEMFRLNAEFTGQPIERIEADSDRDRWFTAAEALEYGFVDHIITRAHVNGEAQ
UniProt P9WPC3, whole entry partner: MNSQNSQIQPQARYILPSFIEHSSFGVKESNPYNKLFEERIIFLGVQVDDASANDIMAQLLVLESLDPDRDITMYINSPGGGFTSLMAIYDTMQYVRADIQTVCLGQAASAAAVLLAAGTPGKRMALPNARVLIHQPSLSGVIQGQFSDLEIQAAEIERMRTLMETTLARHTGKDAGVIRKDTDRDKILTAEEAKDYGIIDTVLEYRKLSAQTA
UniProt Q4DA54, 1-478: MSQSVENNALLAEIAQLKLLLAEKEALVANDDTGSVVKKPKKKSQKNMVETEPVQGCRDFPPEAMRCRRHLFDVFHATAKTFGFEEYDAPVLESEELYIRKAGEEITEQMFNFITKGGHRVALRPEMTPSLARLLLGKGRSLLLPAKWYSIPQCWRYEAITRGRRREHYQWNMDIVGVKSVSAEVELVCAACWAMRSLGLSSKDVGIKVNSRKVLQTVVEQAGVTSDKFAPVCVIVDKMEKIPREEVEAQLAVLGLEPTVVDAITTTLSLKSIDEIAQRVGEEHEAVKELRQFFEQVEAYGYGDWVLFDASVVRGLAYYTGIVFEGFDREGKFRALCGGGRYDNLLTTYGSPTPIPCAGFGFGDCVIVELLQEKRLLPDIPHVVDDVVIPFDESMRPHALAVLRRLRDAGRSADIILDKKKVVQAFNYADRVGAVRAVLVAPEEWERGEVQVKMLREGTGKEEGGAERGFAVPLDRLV
UniProt I6X8D2, whole entry: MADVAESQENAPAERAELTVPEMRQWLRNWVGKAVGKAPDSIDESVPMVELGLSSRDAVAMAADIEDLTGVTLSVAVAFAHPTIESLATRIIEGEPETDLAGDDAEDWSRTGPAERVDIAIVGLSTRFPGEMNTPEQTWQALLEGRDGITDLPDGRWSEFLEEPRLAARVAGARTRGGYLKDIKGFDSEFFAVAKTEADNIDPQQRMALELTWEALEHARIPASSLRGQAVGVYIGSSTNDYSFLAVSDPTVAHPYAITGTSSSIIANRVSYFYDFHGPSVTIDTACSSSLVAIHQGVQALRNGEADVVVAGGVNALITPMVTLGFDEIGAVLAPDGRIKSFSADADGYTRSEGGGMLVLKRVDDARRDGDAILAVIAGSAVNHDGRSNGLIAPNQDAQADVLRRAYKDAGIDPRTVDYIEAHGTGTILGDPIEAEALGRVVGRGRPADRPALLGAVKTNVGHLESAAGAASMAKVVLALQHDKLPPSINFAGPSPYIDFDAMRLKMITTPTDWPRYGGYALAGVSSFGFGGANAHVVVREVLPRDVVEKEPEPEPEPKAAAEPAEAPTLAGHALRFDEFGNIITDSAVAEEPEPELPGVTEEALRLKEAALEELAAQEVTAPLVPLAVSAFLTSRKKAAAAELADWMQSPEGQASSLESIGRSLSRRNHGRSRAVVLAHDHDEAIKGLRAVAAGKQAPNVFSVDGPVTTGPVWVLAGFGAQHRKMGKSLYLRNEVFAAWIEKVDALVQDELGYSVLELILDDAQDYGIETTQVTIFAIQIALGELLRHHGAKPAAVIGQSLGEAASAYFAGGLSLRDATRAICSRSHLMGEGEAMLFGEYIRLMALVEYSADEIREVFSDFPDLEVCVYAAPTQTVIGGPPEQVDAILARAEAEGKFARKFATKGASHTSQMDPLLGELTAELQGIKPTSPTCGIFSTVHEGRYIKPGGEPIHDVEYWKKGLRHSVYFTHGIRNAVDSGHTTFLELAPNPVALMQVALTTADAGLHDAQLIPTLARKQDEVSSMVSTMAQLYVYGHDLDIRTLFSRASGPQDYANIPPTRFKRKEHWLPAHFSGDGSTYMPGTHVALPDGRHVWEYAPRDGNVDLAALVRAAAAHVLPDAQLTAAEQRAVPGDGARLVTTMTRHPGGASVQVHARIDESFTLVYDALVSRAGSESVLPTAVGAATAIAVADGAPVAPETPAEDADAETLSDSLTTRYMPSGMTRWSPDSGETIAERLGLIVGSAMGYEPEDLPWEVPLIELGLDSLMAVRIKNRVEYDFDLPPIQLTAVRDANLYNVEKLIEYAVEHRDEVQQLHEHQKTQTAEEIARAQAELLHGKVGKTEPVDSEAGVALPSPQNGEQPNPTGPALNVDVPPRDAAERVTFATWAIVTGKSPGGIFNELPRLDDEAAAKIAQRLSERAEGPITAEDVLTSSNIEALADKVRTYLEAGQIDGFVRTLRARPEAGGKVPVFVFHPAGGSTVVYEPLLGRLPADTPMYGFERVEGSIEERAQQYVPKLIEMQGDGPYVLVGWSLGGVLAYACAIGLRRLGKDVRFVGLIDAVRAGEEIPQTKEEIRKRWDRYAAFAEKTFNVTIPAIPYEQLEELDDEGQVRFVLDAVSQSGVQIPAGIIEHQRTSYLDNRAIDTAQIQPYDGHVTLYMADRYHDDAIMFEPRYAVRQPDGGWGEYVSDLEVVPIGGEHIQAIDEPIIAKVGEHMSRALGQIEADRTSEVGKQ
UniProt Q8IDJ8, 1-583: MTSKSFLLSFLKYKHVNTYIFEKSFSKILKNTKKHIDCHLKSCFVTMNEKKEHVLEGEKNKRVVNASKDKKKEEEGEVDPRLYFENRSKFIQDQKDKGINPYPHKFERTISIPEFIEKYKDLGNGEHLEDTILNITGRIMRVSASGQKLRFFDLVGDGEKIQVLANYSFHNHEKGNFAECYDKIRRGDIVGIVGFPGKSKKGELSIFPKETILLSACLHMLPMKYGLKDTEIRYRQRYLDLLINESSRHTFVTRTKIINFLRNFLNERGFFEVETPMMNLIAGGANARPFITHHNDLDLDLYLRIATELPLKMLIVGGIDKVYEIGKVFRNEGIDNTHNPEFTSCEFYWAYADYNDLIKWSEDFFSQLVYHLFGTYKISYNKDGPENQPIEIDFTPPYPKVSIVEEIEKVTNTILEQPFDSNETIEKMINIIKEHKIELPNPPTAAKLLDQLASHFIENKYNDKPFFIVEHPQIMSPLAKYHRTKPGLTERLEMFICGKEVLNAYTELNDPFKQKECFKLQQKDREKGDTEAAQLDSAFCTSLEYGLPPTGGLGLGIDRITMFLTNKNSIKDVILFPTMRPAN

Measurements from “University of Dundee, Small-Polar-MMV Screening Library” (2021), ChEMBL document CHEMBL3988442.

A: 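ClpP1P2, Mycobacterium tuberculosis (UniProt P9WPC5 and UniProt P9WPC3). Protease assay of ClpP1P2, read by the AMC dye that it sets free. Concentration: 50 µM. Direction is inferred from only a few compounds that gave an IC50; most scored high, so higher reads as stronger inhibition. Most other retested compounds had strongly negative values. About 69,000 compounds were tested under these conditions; 0.015% (about 10) showed 50% or more at least once.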
B: 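Assay of Toxoplasma gondii numbers, read through their beta-galactosidase reporter with a colour substrate. Concentration: 10 µM. Higher reads as fewer parasites (inferred from which compounds were picked for retests). About 67,000 compounds were tested under these conditions; 0.38% (about 260) showed 50% or more at least once.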
C: 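Histidine-tRNA ligase, Trypanosoma cruzi CL Brener (UniProt Q4DA54). Enzyme assay of histidyl-tRNA synthetase; the read-out is not stated. Tested at 30 µM. Higher reads as stronger inhibition (inferred: compounds with an IC50 in retests scored well above the rest). Of about 69,000 compounds tested this way, about 31 (0.045%) reached 50% or more in at least one test.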
D: 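Enzyme assay of the thioesterase domain of polyketide synthase 13; the read-out is not stated. Target: Polyketide synthase Pks13, Mycobacterium tuberculosis (UniProt I6X8D2). Tested at 30 µM. Higher reads as stronger inhibition (inferred from which compounds were picked for retests). Size under these conditions: about 67,000 compounds, about 300 of them at 50% or above in at least one test.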
E: 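Enzyme assay of the cytosolic lysyl-tRNA synthetase in 384-well plates, read by luminescence. Target: Lysine-tRNA ligase, Plasmodium falciparum 3D7 (UniProt Q8IDJ8). Tested at 30 µM. Direction is inferred from only a few compounds that gave an IC50; most scored high, so higher reads as stronger inhibition. About 69,000 compounds were tested under these conditions; 0.071% (about 49) showed 50% or more at least once.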

The filed quantity is “Percent Effect” (%). The controls that fix the scale are not given in the record; negative values are as filed. This is an unselected part of the compounds tested. A dash means the value is not listed here; it may have been measured.

structure | A | B | C | D | E
[H][C@]12CCC[C@@]1(COCC)CN(C(=O)COc1ccccc1OC)C2 | - | -15.09 | - | - | -
CN1CCCn2c(nc(CNC(=O)c3nccn3C)cc2=O)C1 | 0.2997 | - | 5.882 | 8 | 2.287
CC1(C)CNC(=O)c2nc(-c3ccccc3)[nH]c2C1 | -2.183 | 2.443 | 1.031 | -0.2546 | -6.286
COc1cccc(OCC2CCCN(C(=O)CCn3ccnc3)C2)c1 (stereo not shown) | -2.455 | 9.748 | 0.9804 | -34.43 | -2.828
N#Cc1ccc(S(=O)(=O)NC(=O)c2ccc3c(c2)COC3)cc1 | -0.8116 | 1.705 | -0.9804 | -27.03 | 7.361
CN(C)S(=O)(=O)N1CC(c2nc(-c3ccsc3)no2)C1 | -11.63 | -1.494 | 3.415 | 6.951 | 4.998
COc1cccc(SCC(=O)N2CCCC(N3CCCC3=O)C2)c1 (stereo not shown) | -5.055 | -12.24 | 0 | -34.45 | 1.586
[H][C@@]12CN(C(=O)c3cccnc3)C[C@]1([H])OCC(=O)N2Cc1cccnc1 | - | -2.502 | - | - | -
Cc1cnn(CCC(=O)N2CCCC(c3cc(C)[nH]n3)C2)c1 (stereo not shown) | -7.675 | -1.886 | -0.8721 | -15.08 | -2.068
O=C(CN1CCCCC1Cn1cncn1)NCCC1=CCCCC1 (stereo not shown) | -1.057 | - | 7.519 | -32.44 | 0.6518
Cc1cccc2sc(NC(=O)CN3CCC(C)CC3)nc12 | -0.4924 | 7.16 | 4.891 | -31.27 | -0.4186
CSc1ccc(CNC2(c3ccc(F)cc3)CCOCC2)cc1 | 0.4393 | -0.5196 | 2.174 | -16.42 | 6.049
O=C(Nc1ccc(F)cc1)C(c1ccccc1)N1CCOCC1 (stereo not shown) | 1.988 | - | 8.333 | -14.08 | 3.134
COCc1cc(CN(C)C(=O)c2c[nH]nc2-c2cccc(F)c2)n[nH]1 | 18.84 | 6.43 | 4.721 | -7.902 | -6.003
O=C(O)C(F)(F)F.O=C(O)C(F)(F)F.[H][C@@]12CCCO[C@]1([H])[C@H](OCCCn1cccn1)CN2c1nnc(C)s1 | - | 5.503 | - | - | -
CCn1cnnc1C1CCN(C(=O)c2ccccc2OC)CC1 | -5.916 | 2.647 | 2.29 | -12.16 | 6.434
COc1ncccc1C(=O)N1CCN(C(=O)Cc2ccccn2)CC1 | 18.76 | -2.756 | 1.128 | -8.629 | 2.153
Cc1ccc(CN2CCCC3(CCC(=O)N3)CC2)s1 (stereo not shown) | -10.31 | - | 4.854 | -23.14 | 2.707
CC(Nc1ccc(CCN2CCCCC2)cc1)C(=O)N(C)CCC#N (stereo not shown) | -0.3596 | -0.9604 | 0.8403 | -6.574 | 1.258
CC(C)c1ccc(CS(=O)(=O)Cc2nc(N)nc(N(C)C)n2)cc1 | 4.913 | -7.081 | 12.85 | -18.37 | 0.5211
[H][C@@]12CCN(c3cnccn3)C[C@@]1(C(=O)O)CCCN2Cc1cccnc1 | - | 3.144 | - | - | -
CCC[C@H]1CN(C2CCOCC2)C[C@@H]1NC(=O)CCc1cnccn1 | -14.11 | 0.8323 | 1.478 | 17.79 | -0.04907
CCc1cc(N[C@H]2CCC[C@H]2CO)n2nc(C)c(C)c2n1 | -32.86 | -18.58 | 3.125 | -2.583 | 4
O=C(CNC(=O)C1(c2ccc(F)cc2F)CCC1)Nc1ccccn1 | -4.814 | 0.3976 | 8.808 | -15.09 | -0.5286
Cc1cc(CN2C[C@@H]3COC[C@H](C(=O)N4CCCCO4)[C@@H]3C2)oc1C | -2.682 | - | 6.863 | -10.69 | 0.08957
CN(C(=O)c1cccc(NCC(=O)O)c1)C(C1CC1)C1CC1 | -8.807 | -12.67 | 9.453 | -16.29 | 2.445
CCCc1cc(=O)[nH]c(-c2cccc(CN3CCCCCC3)c2)n1 | 3.185 | -37 | 8.642 | -28.89 | 0.155
Cc1nc(CN2CCC(N(C)Cc3noc(C(C)C)n3)C2)oc1C (stereo not shown) | 9.811 | 10.99 | 0 | -8.373 | 2.913
Cc1ccccc1CNC(Cn1cncn1)c1ccccc1 (stereo not shown) | -8.864 | -6.236 | 3.784 | -2.498 | 1.43
Br.O=C(CN(C1=NCCCCC1)c1ccc(Cl)cc1)c1ccccc1 | - | 5.334 | - | - | -
O=C(c1onc2ccccc12)N1CCC2(CCCNC2)C1 (stereo not shown) | -0.004492 | 13.74 | 10 | -1.018 | 1.102
[H][C@@]12CN(C(=O)N3CCOCC3)C[C@@]1([H])N(CC(C)C)C(=O)CO2 | - | -5.039 | - | - | -
Cc1cccc(NC2CCN(C(=O)Nc3cn[nH]c3)CC2)n1 | -6.119 | 1.789 | 1.163 | -2.545 | -0.5652
Cc1cc(CN(C)S(=O)(=O)N2CCCC2c2ccc(C)o2)no1 (stereo not shown) | -20.2 | 4.969 | 3.614 | -17.45 | -2.575
O=C(c1cccnc1O)N1CCC(COc2ccccc2)CC1 | 4.213 | -1.37 | 7.895 | -28.19 | -1.093
COc1ccccc1CC(=O)N(CCN1CCOCC1)Cc1ccco1 | -10.88 | -21.41 | -14.57 | -0.5611 | 1.777
O=C1CC(c2cccnc2)c2c(sc3c2CCCC3)N1 (stereo not shown) | 6.16 | 11.27 | 6.186 | -16.58 | -0.1372
CC(C)CNC(=O)C1(Cc2ccccc2-c2cccs2)CCNC1 (stereo not shown) | 0.8981 | 12.22 | -4.478 | -15.01 | 0.192
Cn1ccnc1CN1CCN2C[C@H](Oc3cncnc3)C[C@H]2C1 | -19.56 | - | 6.863 | 7.411 | 4.612
CCOc1ccc(N2CCCN=C2NC(=O)c2ccc(Cl)cc2)cc1 | 3.939 | 8.687 | 20.87 | 42.35 | 1.11
Cc1ccc(N2CC[C@H]3CN(C(=O)c4ccn(C)n4)C[C@H]3C2)nn1 | 5.008 | - | 7.216 | -9.952 | 5.188
O=C(NC1CC1)C1=CC2(CCN(CCO)CC2)c2ccccc21.O=C(O)C(F)(F)F | - | -8.395 | - | - | -
CCOc1ncccc1CNS(=O)(=O)c1ccc2c(c1)CCCC(=O)N2 | 9.609 | 3.733 | 6.077 | -14.43 | -6.076
Cc1ccccc1CC(C)NCc1c(C)nn(C)c1N1CCOCC1.Cl (stereo not shown) | - | 0.9305 | - | - | -